From paper PMC8569552
No constants are given. Whether binding was seen depends on the method and setting. Binding seen in cells or lysates may run through a third protein. Here binding means that the protein was enriched with, or labelled near, the bait; the list need not be complete. For some assays here: A no says only that the protein was not detected with the bait.

Sequences of proteins named here, by UniProt entry; tags and fusion partners are left off. Residues count along the entry.
sLUR-517GFP (Q14160, residues 1-517): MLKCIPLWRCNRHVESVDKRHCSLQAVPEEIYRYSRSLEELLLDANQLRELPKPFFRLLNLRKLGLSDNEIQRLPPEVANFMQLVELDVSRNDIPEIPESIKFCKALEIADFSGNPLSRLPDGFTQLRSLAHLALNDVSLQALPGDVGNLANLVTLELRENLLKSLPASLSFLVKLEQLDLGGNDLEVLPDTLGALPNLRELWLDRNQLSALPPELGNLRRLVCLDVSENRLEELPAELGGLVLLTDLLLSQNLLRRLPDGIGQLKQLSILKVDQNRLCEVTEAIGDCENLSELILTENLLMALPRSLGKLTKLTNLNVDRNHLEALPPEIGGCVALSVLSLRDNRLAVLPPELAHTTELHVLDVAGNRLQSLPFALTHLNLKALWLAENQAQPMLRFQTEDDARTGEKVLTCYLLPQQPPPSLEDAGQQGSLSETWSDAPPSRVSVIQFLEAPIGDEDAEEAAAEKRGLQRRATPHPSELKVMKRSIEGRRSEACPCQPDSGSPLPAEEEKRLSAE
sLUR-420GFP (Q14160, residues 1-420): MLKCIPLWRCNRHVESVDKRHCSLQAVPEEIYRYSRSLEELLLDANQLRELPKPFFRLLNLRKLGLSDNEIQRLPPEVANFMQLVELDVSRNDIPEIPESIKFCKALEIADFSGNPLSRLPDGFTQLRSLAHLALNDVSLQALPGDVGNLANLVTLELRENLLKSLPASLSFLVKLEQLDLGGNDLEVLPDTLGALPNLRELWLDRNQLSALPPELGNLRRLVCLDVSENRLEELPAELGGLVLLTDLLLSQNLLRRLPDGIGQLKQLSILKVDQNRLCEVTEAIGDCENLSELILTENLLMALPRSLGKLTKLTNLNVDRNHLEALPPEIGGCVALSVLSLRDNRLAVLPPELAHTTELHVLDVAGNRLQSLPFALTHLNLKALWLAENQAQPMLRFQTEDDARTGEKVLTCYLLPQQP
sLUR-402GFP (Q14160, residues 1-402): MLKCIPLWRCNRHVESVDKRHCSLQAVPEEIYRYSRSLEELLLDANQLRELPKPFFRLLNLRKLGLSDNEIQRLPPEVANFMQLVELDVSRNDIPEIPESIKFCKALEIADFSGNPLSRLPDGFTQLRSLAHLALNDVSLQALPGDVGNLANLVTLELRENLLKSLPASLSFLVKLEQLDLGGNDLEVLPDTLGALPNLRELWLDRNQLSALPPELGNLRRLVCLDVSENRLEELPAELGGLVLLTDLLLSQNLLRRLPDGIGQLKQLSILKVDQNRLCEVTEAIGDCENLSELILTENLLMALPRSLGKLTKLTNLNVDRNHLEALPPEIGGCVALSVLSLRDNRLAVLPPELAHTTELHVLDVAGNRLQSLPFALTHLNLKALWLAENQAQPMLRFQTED
UniProt P04899: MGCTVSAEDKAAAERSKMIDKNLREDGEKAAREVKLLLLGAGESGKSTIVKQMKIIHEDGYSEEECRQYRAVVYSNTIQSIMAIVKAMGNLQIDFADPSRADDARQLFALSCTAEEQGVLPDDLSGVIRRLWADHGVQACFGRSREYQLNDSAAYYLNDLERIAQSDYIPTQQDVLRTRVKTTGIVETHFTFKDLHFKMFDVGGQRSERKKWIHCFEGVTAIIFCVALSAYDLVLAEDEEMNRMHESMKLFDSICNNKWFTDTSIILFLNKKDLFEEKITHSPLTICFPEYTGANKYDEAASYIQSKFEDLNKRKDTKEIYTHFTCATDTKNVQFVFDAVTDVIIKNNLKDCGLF
UniProt P62879: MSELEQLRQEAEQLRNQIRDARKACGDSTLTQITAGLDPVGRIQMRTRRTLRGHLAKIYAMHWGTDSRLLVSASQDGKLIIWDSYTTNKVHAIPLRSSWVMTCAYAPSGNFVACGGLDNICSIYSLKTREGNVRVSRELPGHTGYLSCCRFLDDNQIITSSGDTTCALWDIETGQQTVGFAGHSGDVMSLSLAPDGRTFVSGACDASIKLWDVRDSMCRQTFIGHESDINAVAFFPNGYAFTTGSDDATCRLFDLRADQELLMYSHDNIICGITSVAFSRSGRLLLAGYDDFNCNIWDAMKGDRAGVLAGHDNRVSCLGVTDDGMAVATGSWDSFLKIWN
UniProt Q9H9A6: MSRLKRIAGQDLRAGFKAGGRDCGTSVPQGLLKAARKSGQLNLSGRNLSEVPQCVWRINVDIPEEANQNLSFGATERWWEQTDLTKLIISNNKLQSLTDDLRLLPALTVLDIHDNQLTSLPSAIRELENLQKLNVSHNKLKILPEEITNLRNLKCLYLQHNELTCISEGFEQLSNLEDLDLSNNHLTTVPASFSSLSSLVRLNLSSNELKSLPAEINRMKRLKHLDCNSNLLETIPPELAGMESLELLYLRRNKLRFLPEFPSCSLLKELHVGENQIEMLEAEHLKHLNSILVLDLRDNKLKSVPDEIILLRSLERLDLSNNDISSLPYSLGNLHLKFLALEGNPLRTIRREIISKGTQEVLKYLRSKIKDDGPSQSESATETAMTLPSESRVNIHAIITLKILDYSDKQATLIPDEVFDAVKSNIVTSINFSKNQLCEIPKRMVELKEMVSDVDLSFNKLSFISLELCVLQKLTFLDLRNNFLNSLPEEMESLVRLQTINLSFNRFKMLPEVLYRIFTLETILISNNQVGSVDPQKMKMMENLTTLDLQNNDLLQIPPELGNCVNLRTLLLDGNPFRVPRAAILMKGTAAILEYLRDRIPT
UniProt O43491: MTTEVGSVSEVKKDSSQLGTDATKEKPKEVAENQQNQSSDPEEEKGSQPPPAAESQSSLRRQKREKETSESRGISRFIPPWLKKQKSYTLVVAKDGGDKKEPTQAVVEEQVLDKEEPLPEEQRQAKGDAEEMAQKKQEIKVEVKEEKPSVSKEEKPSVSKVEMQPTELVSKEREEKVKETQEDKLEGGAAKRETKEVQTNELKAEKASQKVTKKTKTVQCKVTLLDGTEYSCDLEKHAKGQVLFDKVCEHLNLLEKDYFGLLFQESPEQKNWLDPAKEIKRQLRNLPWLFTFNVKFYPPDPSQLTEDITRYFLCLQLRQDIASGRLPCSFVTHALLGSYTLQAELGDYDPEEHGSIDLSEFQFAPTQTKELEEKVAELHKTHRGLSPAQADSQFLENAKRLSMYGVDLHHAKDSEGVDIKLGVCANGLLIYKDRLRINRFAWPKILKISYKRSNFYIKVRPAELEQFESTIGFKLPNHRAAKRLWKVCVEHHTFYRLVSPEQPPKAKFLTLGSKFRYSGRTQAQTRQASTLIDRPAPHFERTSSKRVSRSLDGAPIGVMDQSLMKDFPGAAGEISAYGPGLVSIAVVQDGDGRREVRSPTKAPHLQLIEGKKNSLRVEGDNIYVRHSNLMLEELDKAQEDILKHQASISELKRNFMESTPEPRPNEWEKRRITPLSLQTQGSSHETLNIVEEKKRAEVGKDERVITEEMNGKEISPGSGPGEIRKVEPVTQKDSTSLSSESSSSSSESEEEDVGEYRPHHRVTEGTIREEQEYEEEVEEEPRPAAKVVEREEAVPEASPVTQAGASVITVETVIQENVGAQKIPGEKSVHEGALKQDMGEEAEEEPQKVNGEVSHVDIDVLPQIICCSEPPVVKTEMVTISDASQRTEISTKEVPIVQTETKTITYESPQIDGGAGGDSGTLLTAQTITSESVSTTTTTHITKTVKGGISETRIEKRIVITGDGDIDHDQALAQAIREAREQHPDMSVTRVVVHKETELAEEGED
UniProt Q14344: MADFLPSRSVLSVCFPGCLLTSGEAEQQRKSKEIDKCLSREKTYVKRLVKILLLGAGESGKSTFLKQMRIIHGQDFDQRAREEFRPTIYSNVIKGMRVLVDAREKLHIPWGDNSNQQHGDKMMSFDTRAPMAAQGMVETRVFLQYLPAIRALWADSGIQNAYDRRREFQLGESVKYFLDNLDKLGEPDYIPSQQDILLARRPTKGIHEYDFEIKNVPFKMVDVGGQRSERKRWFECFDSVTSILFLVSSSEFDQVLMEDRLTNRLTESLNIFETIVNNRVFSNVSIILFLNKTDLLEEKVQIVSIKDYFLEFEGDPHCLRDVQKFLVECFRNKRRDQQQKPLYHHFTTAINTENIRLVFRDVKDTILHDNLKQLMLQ
UniProt P08754: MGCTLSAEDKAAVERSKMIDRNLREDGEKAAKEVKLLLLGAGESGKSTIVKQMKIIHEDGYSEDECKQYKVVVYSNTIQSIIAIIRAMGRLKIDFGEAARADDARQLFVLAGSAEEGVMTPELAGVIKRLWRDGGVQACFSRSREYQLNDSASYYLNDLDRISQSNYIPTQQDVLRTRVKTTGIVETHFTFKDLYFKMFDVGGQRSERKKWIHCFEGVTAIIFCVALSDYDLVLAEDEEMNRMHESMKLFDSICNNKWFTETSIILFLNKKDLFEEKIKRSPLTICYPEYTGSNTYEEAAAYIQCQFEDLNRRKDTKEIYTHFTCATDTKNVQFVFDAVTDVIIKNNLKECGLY
UniProt P62873: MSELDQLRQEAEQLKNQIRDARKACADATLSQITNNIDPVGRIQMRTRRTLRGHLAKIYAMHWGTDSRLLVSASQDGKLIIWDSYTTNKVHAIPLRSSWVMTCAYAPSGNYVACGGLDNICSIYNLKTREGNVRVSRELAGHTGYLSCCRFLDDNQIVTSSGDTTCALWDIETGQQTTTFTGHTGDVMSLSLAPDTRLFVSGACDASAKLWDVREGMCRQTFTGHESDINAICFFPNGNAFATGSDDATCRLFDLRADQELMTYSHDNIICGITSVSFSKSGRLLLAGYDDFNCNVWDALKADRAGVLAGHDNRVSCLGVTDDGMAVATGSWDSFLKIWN
UniProt O60346: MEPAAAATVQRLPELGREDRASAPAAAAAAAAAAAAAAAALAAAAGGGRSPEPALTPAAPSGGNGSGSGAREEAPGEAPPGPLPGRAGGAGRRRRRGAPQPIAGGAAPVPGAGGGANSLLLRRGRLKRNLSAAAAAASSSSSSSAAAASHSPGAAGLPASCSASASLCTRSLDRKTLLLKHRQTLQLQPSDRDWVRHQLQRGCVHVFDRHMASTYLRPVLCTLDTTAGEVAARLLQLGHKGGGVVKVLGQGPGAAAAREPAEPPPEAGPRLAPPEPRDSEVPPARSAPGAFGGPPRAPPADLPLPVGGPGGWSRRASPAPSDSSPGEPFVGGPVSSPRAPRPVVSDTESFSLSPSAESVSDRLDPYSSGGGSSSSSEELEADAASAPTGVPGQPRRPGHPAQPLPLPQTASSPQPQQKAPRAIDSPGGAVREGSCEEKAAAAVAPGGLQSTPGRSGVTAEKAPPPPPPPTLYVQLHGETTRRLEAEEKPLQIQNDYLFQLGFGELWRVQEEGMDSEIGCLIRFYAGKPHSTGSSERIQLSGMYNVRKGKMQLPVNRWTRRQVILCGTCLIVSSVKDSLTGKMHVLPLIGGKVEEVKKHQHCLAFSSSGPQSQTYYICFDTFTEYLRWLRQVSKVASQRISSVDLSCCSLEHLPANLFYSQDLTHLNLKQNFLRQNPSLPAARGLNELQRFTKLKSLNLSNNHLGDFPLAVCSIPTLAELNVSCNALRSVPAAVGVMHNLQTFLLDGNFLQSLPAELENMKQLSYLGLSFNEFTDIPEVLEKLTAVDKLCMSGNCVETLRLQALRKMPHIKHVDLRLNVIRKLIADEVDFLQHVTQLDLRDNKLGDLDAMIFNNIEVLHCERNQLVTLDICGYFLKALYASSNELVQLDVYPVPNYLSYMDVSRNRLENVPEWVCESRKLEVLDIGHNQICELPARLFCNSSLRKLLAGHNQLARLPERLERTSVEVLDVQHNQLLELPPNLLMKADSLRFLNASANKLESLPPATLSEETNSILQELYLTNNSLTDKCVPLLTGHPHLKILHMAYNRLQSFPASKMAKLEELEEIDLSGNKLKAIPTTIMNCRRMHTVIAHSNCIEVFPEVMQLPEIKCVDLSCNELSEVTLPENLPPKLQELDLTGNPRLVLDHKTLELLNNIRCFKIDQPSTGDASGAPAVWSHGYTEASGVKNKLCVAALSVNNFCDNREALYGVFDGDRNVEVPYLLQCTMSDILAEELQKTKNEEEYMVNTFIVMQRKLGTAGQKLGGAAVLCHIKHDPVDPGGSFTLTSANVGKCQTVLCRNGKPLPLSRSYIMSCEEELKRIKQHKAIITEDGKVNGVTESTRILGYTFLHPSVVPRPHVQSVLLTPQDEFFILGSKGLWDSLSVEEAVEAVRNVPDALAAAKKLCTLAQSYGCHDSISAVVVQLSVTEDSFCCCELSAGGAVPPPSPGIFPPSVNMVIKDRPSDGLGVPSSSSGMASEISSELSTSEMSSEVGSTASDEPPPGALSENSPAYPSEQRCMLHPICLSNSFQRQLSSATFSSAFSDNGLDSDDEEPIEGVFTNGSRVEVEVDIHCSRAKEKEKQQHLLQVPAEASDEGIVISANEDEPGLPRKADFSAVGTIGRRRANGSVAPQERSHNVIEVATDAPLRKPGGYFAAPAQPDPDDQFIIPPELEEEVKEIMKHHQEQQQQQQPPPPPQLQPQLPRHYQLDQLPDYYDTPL

Key:
Assay in all cases: affinity purification with mass spectrometry; in-cell cross-linking with BMPEO3 (cysteine-specific, 14.7 Å spacer arm) before lysis; GFP-trap; LC-MS/MS; list filtered against wt DLD1 cells and sLUR-P305L-517GFP cells
sLUR-420GFP (human) = sLUR-420GFP (human) (UniProt Q14160)
sLUR-517GFP (human) = sLUR-517GFP (human) (UniProt Q14160)
sLUR-402GFP (human) = sLUR-402GFP (human) (UniProt Q14160)

| Substance | binding (sLUR-420GFP (human)) | binding (sLUR-517GFP (human)) | binding (sLUR-402GFP (human)) |
| --- | --- | --- | --- |
| EPB41L5 (from UniProt Q9HCM4 1-733) | binds | binds |  |
| GNAI2 (from UniProt P04899 1-355) | binds | binds | binds |
| GNB2 (from UniProt P62879 1-340) | binds | binds | binds |
| LRRC40 (from UniProt Q9H9A6 1-602) | no binding | no binding | binds |
| MARK2 (from UniProt Q7KZI7 1-788) (enzyme) | binds | binds | binds |
| PP-1A (from UniProt P62136 1-330) (enzyme) | binds | binds |  |

Results, then the substance that gave them:

| binding (sLUR-420GFP (human)) | binding (sLUR-517GFP (human)) | binding (sLUR-402GFP (human)) | Substance |
| --- | --- | --- | --- |
| binds | binds |  | EHBP1L1 (from UniProt Q8N3D4 1-1523) |
| binds | binds | binds | EPB41L2 (from UniProt O43491 1-1005) |
| binds | binds | binds | FAT1 (from UniProt Q14517 22-4588) |
| binds | binds | binds | GNA13 (from UniProt Q14344 1-377) |
| binds | binds | binds | GNAI3 (from UniProt P08754 1-354) |
| binds | binds | binds | GNB1 (from UniProt P62873 1-340) |
| no binding | no binding | binds | PHLPP1 (from UniProt O60346 1-1717) (enzyme) |
| binds | binds |  | PP-1B (from UniProt P62140 1-327) (enzyme) |
